The record followed here is publication PMC12309053.

These are yes or no findings as the source states them, for the method shown. In cells and extracts the contact can be indirect. These calls come from enrichment with a bait or labelling near it, and not all partners need be listed. Where a sequence is shown, tags or fusion partners need not be part of it.

The labels stand for the following.
T1: SRSF7-GFP fusion product (Serine/arginine-rich splicing factor 7, GFP-tagged at the C-terminus, from a BAC) (human) (UniProt Q16629)
T1 sequence: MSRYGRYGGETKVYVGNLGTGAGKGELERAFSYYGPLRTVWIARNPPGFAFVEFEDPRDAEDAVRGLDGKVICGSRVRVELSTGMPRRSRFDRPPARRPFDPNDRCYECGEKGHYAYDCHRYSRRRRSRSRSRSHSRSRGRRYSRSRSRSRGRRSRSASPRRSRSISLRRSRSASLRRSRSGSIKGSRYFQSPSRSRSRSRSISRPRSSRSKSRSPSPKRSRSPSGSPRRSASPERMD

B1: NCOA5 (protein, UniProt Q9HCD5 1-579)
chain: MNTAPSRPSPTRRDPYGFGDSRDSRRDRSPIRGSPRREPRDGRNGRDARDSRDIRDPRDLRDHRHSRDLRDHRDSRSVRDVRDVRDLRDFRDLRDSRDFRDQRDPMYDRYRDMRDSRDPMYRREGSYDRYLRMDDYCRRKDDSYFDRYRDSFDGRGPPGPESQSRAKERLKREERRREELYRQYFEEIQRRFDAERPVDCSVIVVNKQTKDYAESVGRKVRDLGMVVDLIFLNTEVSLSQALEDVSRGGSPFAIVITQQHQIHRSCTVNIMFGTPQEHRNMPQADAMVLVARNYERYKNECREKEREEIARQAAKMADEAILQERERGGPEEGVRGGHPPAIQSLINLLADNRYLTAEETDKIINYLRERKERLMRSSTDSLPGPISRQPLGATSGASLKTQPSSQPLQSGQVLPSATPTPSAPPTSQQELQAKILSLFNSGTVTANSSSASPSVAAGNTPNQNFSTAANSQPQQRSQASGNQPPSILGQGGSAQNMGPRPGAPSQGLFGQPSSRLAPASNMTSQRPVSSTGINFDNPSVQKALDTLIQSGPALSHLVSQTTAQMGQPQAPMGSYQRHY
modifications: phosphorylated
B2: BUD31 (protein, UniProt P41223 1-144)
chain: MPKVKRSRKAPPDGWELIEPTLDELDQKMREAETEPHEGKRKVESLWPIFRIHHQKTRYIFDLFYKRKAISRELYEYCIKEGYADKNLIAKWKKQGYENLCCLRCIQTRDTNFGTNCICRVPKSKLEVGRIIECTHCGCRGCSG
B3: NUP160 (protein, UniProt Q12769 1-1436)
chain: MLHLSAAPPAPPPEVTATARPCLCSVGRRGDGGKMAAAGALERSFVELSGAERERPRHFREFTVCSIGTANAVAGAVKYSESAGGFYYVESGKLFSVTRNRFIHWKTSGDTLELMEESLDINLLNNAIRLKFQNCSVLPGGVYVSETQNRVIILMLTNQTVHRLLLPHPSRMYRSELVVDSQMQSIFTDIGKVDFTDPCNYQLIPAVPGISPNSTASTAWLSSDGEALFALPCASGGIFVLKLPPYDIPGMVSVVELKQSSVMQRLLTGWMPTAIRGDQSPSDRPLSLAVHCVEHDAFIFALCQDHKLRMWSYKEQMCLMVADMLEYVPVKKDLRLTAGTGHKLRLAYSPTMGLYLGIYMHAPKRGQFCIFQLVSTESNRYSLDHISSLFTSQETLIDFALTSTDIWALWHDAENQTVVKYINFEHNVAGQWNPVFMQPLPEEEIVIRDDQDPREMYLQSLFTPGQFTNEALCKALQIFCRGTERNLDLSWSELKKEVTLAVENELQGSVTEYEFSQEEFRNLQQEFWCKFYACCLQYQEALSHPLALHLNPHTNMVCLLKKGYLSFLIPSSLVDHLYLLPYENLLTEDETTISDDVDIARDVICLIKCLRLIEESVTVDMSVIMEMSCYNLQSPEKAAEQILEDMITIDVENVMEDICSKLQEIRNPIHAIGLLIREMDYETEVEMEKGFNPAQPLNIRMNLTQLYGSNTAGYIVCRGVHKIASTRFLICRDLLILQQLLMRLGDAVIWGTGQLFQAQQDLLHRTAPLLLSYYLIKWGSECLATDVPLDTLESNLQHLSVLELTDSGALMANRFVSSPQTIVELFFQEVARKHIISHLFSQPKAPLSQTGLNWPEMITAITSYLLQLLWPSNPGCLFLECLMGNCQYVQLQDYIQLLHPWCQVNVGSCRFMLGRCYLVTGEGQKALECFCQAASEVGKEEFLDRLIRSEDGEIVSTPRLQYYDKVLRLLDVIGLPELVIQLATSAITEAGDDWKSQATLRTCIFKHHLDLGHNSQAYEALTQIPDSSRQLDCLRQLVVVLCERSQLQDLVEFPYVNLHNEVVGIIESRARAVDLMTHNYYELLYAFHIYRHNYRKAGTVMFEYGMRLGREVRTLRGLEKQGNCYLAALNCLRLIRPEYAWIVQPVSGAVYDRPGASPKRNHDGECTAAPTNRQIEILELEDLEKECSLARIRLTLAQHDPSAVAVAGSSSAEEMVTLLVQAGLFDTAISLCQTFKLPLTPVFEGLAFKCIKLQFGGEAAQAEAWAWLAANQLSSVITTKESSATDEAWRLLSTYLERYKVQNNLYHHCVINKLLSHGVPLPNWLINSYKKVDAAELLRLYLNYDLLEEAVDLVSEYVDAVLGKGHQYFGIEFPLSATAPMVWLPYSSIDQLLQALGENSANSHNIALSQKILDKLEDYQQKVDKATRDLLYRRTL
B4: AQR (protein, UniProt O60306 1-1485)
chain: MAAPAQPKKIVAPTVSQINAEFVTQLACKYWAPHIKKKSPFDIKVIEDIYEKEIVKSRFAIRKIMLLEFSQYLENYLWMNYSPEVSSKAYLMSICCMVNEKFRENVPAWEIFKKKPDHFPFFFKHILKAALAETDGEFSLHEQTVLLLFLDHCFNSLEVDLIRSQVQQLISLPMWMGLQLARLELELKKTPKLRKFWNLIKKNDEKMDPEAREQAYQERRFLSQLIQKFISVLKSVPLSEPVTMDKVHYCERFIELMIDLEALLPTRRWFNTILDDSHLLVHCYLSNLVRREEDGHLFSQLLDMLKFYTGFEINDQTGNALTENEMTTIHYDRITSLQRAAFAHFPELYDFALSNVAEVDTRESLVKFFGPLSSNTLHQVASYLCLLPTLPKNEDTTFDKEFLLELLVSRHERRISQIQQLNQMPLYPTEKIIWDENIVPTEYYSGEGCLALPKLNLQFLTLHDYLLRNFNLFRLESTYEIRQDIEDSVSRMKPWQSEYGGVVFGGWARMAQPIVAFTVVEVAKPNIGENWPTRVRADVTINLNVRDHIKDEWEGLRKHDVCFLITVRPTKPYGTKFDRRRPFIEQVGLVYVRGCEIQGMLDDKGRVIEDGPEPRPNLRGESRTFRVFLDPNQYQQDMTNTIQNGAEDVYETFNIIMRRKPKENNFKAVLETIRNLMNTDCVVPDWLHDIILGYGDPSSAHYSKMPNQIATLDFNDTFLSIEHLKASFPGHNVKVTVEDPALQIPPFRITFPVRSGKGKKRKDADVEDEDTEEAKTLIVEPHVIPNRGPYPYNQPKRNTIQFTHTQIEAIRAGMQPGLTMVVGPPGTGKTDVAVQIISNIYHNFPEQRTLIVTHSNQALNQLFEKIMALDIDERHLLRLGHGEEELETEKDFSRYGRVNYVLARRIELLEEVKRLQKSLGVPGDASYTCETAGYFFLYQVMSRWEEYISKVKNKGSTLPDVTEVSTFFPFHEYFANAPQPIFKGRSYEEDMEIAEGCFRHIKKIFTQLEEFRASELLRSGLDRSKYLLVKEAKIIAMTCTHAALKRHDLVKLGFKYDNILMEEAAQILEIETFIPLLLQNPQDGFSRLKRWIMIGDHHQLPPVIKNMAFQKYSNMEQSLFTRFVRVGVPTVDLDAQGRARASLCNLYNWRYKNLGNLPHVQLLPEFSTANAGLLYDFQLINVEDFQGVGESEPNPYFYQNLGEAEYVVALFMYMCLLGYPADKISILTTYNGQKHLIRDIINRRCGNNPLIGRPNKVTTVDRFQGQQNDYILLSLVRTRAVGHLRDVRRLVVAMSRARLGLYIFARVSLFQNCFELTPAFSQLTARPLHLHIIPTEPFPTTRKNGERPSHEVQIIKNMPQMANFVYNMYMHLIQTTHHYHQTLLQLPPAMVEEGEEVQNQETELETEEEAMTVQADIIPSPTDTSCRQETPAFQTDTTPSETGATSTPEAIPALSETTPTVVGAVSAPAEANTPQDATSAPEETK
B5: ISY1 (protein, UniProt Q9ULR0 1-285)
chain: MARNAEKAMTALARFRQAQLEEGKVKERRPFLASECTELPKAEKWRRQIIGEISKKVAQIQNAGLGEFRIRDLNDEINKLLREKGHWEVRIKELGGPDYGKVGPKMLDHEGKEVPGNRGYKYFGAAKDLPGVRELFEKEPLPPPRKTRAELMKAIDFEYYGYLDEDDGVIVPLEQEYEKKLRAELVEKWKAEREARLARGEKEEEEEEEEEINIYAVTEEESDEEGSQEKGGDDSQQKFIAHVPVPSQQEIEEALVRRKKMELLQKYASETLQAQSEEARRLLGY
B6: FYTTD1 (protein, UniProt Q96QD9 1-318)
chain: MNRFGTRLVGATATSSPPPKARSNENLDKIDMSLDDIIKLNRKEGKKQNFPRLNRRLLQQSGAQQFRMRVRWGIQQNSGFGKTSLNRRGRVMPGKRRPNGVITGLAARKTTGIRKGISPMNRPPLSDKNIEQYFPVLKRKANLLRQNEGQRKPVAVLKRPSQLSRKNNIPANFTRSGNKLNHQKDTRQATFLFRRGLKVQAQLNTEQLLDDVVAKRTRQWRTSTTNGGILTVSIDNPGAVQCPVTQKPRLTRTAVPSFLTKREQSDVKKVPKGVPLQFDINSVGKQTGMTLNERFGILKEQRATLTYNKGGSRFVTVG
B7: phosphorylated SRSF8 (protein, UniProt Q9BRL6 1-282)
chain: MSCGRPPPDVDGMITLKVDNLTYRTSPDSLRRVFEKYGRVGDVYIPREPHTKAPRGFAFVRFHDRRDAQDAEAAMDGAELDGRELRVQVARYGRRDLPRSRQGEPRGRSRGGGYGRRSRSYGRRSRSPRRRHRSRSRGPSCSRSRSRSRYRGSRYSRSPYSRSPYSRSRYSRSPYSRSRYRESRYGGSHYSSSGYSNSRYSRYHSSRSHSKSGSSTSSRSASTSKSSSARRSKSSSVSRSRSRSRSSSMTRSPPRVSKRKSKSRSRSKRPPKSPEEEGQMSS
modifications: phosphorylated
B8: TRA2A (protein, UniProt Q13595 1-282)
chain: MSDVEENNFEGRESRSQSKSPTGTPARVKSESRSGSRSPSRVSKHSESHSRSRSKSRSRSRRHSHRRYTRSRSHSHSHRRRSRSRSYTPEYRRRRSRSHSPMSNRRRHTGSRANPDPNTCLGVFGLSLYTTERDLREVFSRYGPLSGVNVVYDQRTGRSRGFAFVYFERIDDSKEAMERANGMELDGRRIRVDYSITKRAHTPTPGIYMGRPTHSGGGGGGGGGGGGGGGGRRRDSYYDRGYDRGYDRYEDYDYRYRRRSPSPYYSRYRSRSRSRSYSPRRY
modifications: phosphorylated
B9: SYF2 (protein, UniProt O95926 1-243)
chain: MAAIAASEVLVDSAEEGSLAAAAELAAQKREQRLRKFRELHLMRNEARKLNHQEVVEEDKRLKLPANWEAKKARLEWELKEEEKKKECAARGEDYEKVKLLEISAEDAERWERKKKRKNPDLGFSDYAAAQLRQYHRLTKQIKPDMETYERLREKHGEEFFPTSNSLLHGTHVPSTEEIDRMVIDLEKQIEKRDKYSRRRPYNDDADIDYINERNAKFNKKAERFYGKYTAEIKQNLERGTAV
B10: phosphorylated SRSF6 (protein, UniProt Q13247 1-344)
chain: MPRVYIGRLSYNVREKDIQRFFSGYGRLLEVDLKNGYGFVEFEDSRDADDAVYELNGKELCGERVIVEHARGPRRDRDGYSYGSRSGGGGYSSRRTSGRDKYGPPVRTEYRLIVENLSSRCSWQDLKDFMRQAGEVTYADAHKERTNEGVIEFRSYSDMKRALDKLDGTEINGRNIRLIEDKPRTSHRRSYSGSRSRSRSRRRSRSRSRRSSRSRSRSISKSRSRSRSRSKGRSRSRSKGRKSRSKSKSKPKSDRGSHSHSRSRSKDEYEKSRSRSRSRSPKENGKGDIKSKSRSRSQSRSNSPLPVPPSKARSVSPPPKRATSRSRSRSRSKSRSRSRSSSRD
modifications: phosphorylated

In this assay the target is T1, SRSF7-GFP fusion product (Serine/arginine-rich splicing factor 7, GFP-tagged at the C-terminus, from a BAC) (human). Put plainly: affinity purification with mass spectrometry; GFP-Trap agarose beads on lysates of BAC-SRSF7-GFP MDA-MB-231 cells treated with 0.1% DMSO or 1 µM T-025 for 24 h; EBC buffer, benzonase, 300 mM NaCl, 2 h at 4 °C; MDA-MB-231-GFP cells as negative control; on-bead trypsin digest, label-free quantification, phospho (STY) as variable modification, four biological replicates.
With B1, the binding result is on record as “binds”.

Take B2: the binding entry is on record as “binds”.

As to B3, the binding entry is reported as “binds”.

For B4, the binding entry is on record as “binds”.

Turning to B5, the binding entry is on record as “binds”.

For the molecule B6, the binding result was “binds”.

In the case of B7, the binding entry was “binds”.

Regarding B8, the binding entry is “binds”.

Take B9: the binding result is “binds”.

For the molecule B10, the binding result is “binds”.
